Measurements published in patent US11852970B2, “Material for lithography, production method therefor, composition for lithography, pattern formation method, compound, resin, and method for purifying the compound or the resin” (Mitsubishi Gas Chemical Company, Inc., priority 2015, dated 2023).
Some compounds share one wording; it may come from a single statement.

How the values were obtained:
[1] = Pattern evaluation of resist pattern (sensitivity and shape evaluation), electron beam; details: minimum energy per unit area for pattern, electron beam 1:1 line and space, 60 nm film, 2.38% TMAH development
[2] = Thin film formability of resist composition; set-up: key: A: the thin film formability was good; C: the formed film had defects; details: resist composition spin coated on silicon wafer, prebaked 110° C., 40 nm film

Row | Compound | Sensitivity evaluation [1] | Thin film formability [2]
1 | Oc1ccc([Te](Cl)(Cl)c2ccc(O)cc2)cc1 [BHPT, bis(4-hydroxyphenyl)tellurium dichloride] | A (the pattern was obtained at less than 50 μC/cm^2) | A
2 | CC1(OC(=O)COc2ccc([Te](Cl)(Cl)c3ccc(OCC(=O)OC4(C)C5CC6CC(C5)CC4C6)cc3)cc2)C2CC3CC(C2)CC1C3 (centres unmarked) [BHPT-ADBAC, bis(4-(2-methyl-2-adamantyloxycarbonylmethoxy)phenyl)tellurium dichloride] | A (the pattern was obtained at less than 50 μC/cm^2) | A
3 | Oc1ccc([Te](Cl)(Cl)c2ccc(O)c(-c3ccccc3)c2)cc1-c1ccccc1 [Ph-BHPT, bis(3-phenyl-4-hydroxyphenyl)tellurium dichloride] | A (the pattern was obtained at less than 50 μC/cm^2) | A
4 | CC1(OC(=O)COc2ccc([Te](Cl)(Cl)c3ccc(OCC(=O)OC4(C)C5CC6CC(C5)CC4C6)c(-c4ccccc4)c3)cc2-c2ccccc2)C2CC3CC(C2)CC1C3 (centres unmarked) [Ph-BHPT-ADBAC] | A (the pattern was obtained at less than 50 μC/cm^2) | A
5 | Oc1ccc([Te]c2ccc(O)c(-c3ccccc3)c2)cc1-c1ccccc1 [Ph-TDP, bis(3-phenyl-4-hydroxyphenyl)tellurium] | A (the pattern was obtained at less than 50 μC/cm^2) | A
6 | CC1(OC(=O)COc2ccc([Te]c3ccc(OCC(=O)OC4(C)C5CC6CC(C5)CC4C6)c(-c4ccccc4)c3)cc2-c2ccccc2)C2CC3CC(C2)CC1C3 (centres unmarked) [Ph-TDP-ADBAC] | A (the pattern was obtained at less than 50 μC/cm^2) | A
7 | CC(C)(C)OC(=O)COc1ccc([Te]c2ccc(OCC(=O)OC(C)(C)C)cc2)cc1 [Ph-TDP-BOC] | A (the pattern was obtained at less than 50 μC/cm^2) | A
8 | CCOC(C)Oc1ccc([Te](Cl)(Cl)c2ccc(OC(C)OCC)c(-c3ccccc3)c2)cc1-c1ccccc1 (centres unmarked) [Ph-TDP-EE] | A (the pattern was obtained at less than 50 μC/cm^2) | A
9 | Oc1ccc([Te]c2ccc(O)cc2)cc1 [TDP, 4,4′-telluriumdiphenol] | A (the pattern was obtained at less than 50 μC/cm^2) | A
10 | CC1(OC(=O)COc2ccc([Te]c3ccc(OCC(=O)OC4(C)C5CC6CC(C5)CC4C6)cc3)cc2)C2CC3CC(C2)CC1C3 (centres unmarked) [TDP-ADBAC] | A (the pattern was obtained at less than 50 μC/cm^2) | A
